Results reported in publication PMC3614781.
These are yes or no findings as the source states them, for the method shown. Binding seen in cells or lysates may run through a third protein. Some entries that bind do so weakly or less than the wild type.

The chains behind the UniProt entries cited, without tags or fusion partners.
UniProt Q07812: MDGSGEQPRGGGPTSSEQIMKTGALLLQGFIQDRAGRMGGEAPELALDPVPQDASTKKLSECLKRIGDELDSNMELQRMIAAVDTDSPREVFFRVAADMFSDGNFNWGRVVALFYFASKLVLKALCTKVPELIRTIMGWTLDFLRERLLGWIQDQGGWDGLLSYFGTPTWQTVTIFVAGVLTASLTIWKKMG

Target: Bax (human (endogenous in HL-60)) (UniProt Q07812)
Assay: co-IP; Bax immunoprecipitated from HL-60 RIPA lysates with 2 ug anti-Bax antibody (clone 6A7) and protein A-agarose overnight at 4 C; 15% SDS-PAGE and Western blot with anti-Bid antibody; cells untreated or treated with 100 uM H2O2 for 120 min or 1 uM thapsigargin for 60 min

binding: binds
B1: Bid (protein, UniProt P55957 1-195)
chain: MDCEVNNGSSLRDECITNLLVFGFLQSCSDNSFRRELDALGHELPVLAPQWEGYDELQTDGNRSSHSRLGRIEADSESQEDIIRNIARHLAQVGDSMDRSIPPGLVNGLALQLRNTSRSEEDRNRDLATALEQLLQAYPRDMEKEKTMLVLALLLAKKVASHTPSLLRDVFHTTVNFINQNLRTYVRSLARNGMD
